Data: US5723576A, “Thrombin inhibitors, the preparation thereof and the use thereof for therapeutical, prophylactic and diagnostic applications” (Development Biotechnological Processes S.N.C., priority 1993, dated 1998)
Not every detail of the peptide structures is certain; ends, links or a residue may be inferred. Peptide text beside a SMILES is read from it.

Experiments:
human plasma [1] = assay: PT (Prothrombin Time) measurement on human plasma; type: biochemical; details: 150% increase of PT vs control (no inhibitors)
human plasma [2] = assay: TT (Thrombin Time) measurement on human plasma; type: biochemical; details: 250% increase of TT vs control (no inhibitors)
human plasma [3] = assay: APTT (Activated Partial Thromboplastin Time) measurement on human plasma; type: biochemical; details: 250% increase of APTT vs control (no inhibitors)
[4] = tested on: platelet aggregation thrombin-mediated; assay: Inhibition of thrombin-mediated platelet aggregation; type: cell-based, human; details: read-out: IC50: inhibitor dose causing a 50% decrease of the platelet aggregation

## CC[C@H](C)[C@H](N)C(=O)N[C@@H](CCCNC(=N)N)C(=O)N[C@@H](Cc1ccccc1)C(=O)N[C@H](C(=O)N[C@@H](CC(=O)O)C(=O)N[C@H](C)C(=O)NCC(=O)NCCC(=O)N1CCC[C@H]1C(=O)N[C@@H](CCC(=O)O)C(=O)N[C@@H](CO)C(=O)N[C@@H](Cc1c[nH]cn1)C(=O)N[C@@H](CCc1ccccc1)C(=O)NCC(=O)NCC(=O)N[C@@H](CC(=O)O)C(=O)N[C@@H](Cc1ccc(O)cc1)C(=O)N[C@@H](CCC(=O)O)C(=O)N[C@@H](CCC(=O)O)C(=O)N[C@H](C(=O)N1CCC[C@H]1C(=O)NC(C)(C)C(=O)NC(C)(C)C(=O)N[C@@H](Cc1ccc(OP(=O)(O)O)cc1)C(=O)N[C@@H](CC1CCCCC1)C(=O)N[C@H](CCC(=O)O)C(=O)O)[C@@H](C)CC)[C@@H](C)O [Hirunorm-III] (HELM PEPTIDE1{I.R.F.T.D.[dA].G.[bAla].P.E.S.H.[O=C([C@H](CCc1ccccc1)N[*:1])[*:2]].G.G.D.Y.E.E.I.P.[Aib].[Aib].[O=C([C@H](Cc1ccc(OP(=O)(O)O)cc1)N[*:1])[*:2]].[Cha].[dE]}$$$$V2.0)
Human plasma [1]
  PT: inhibitor dose causing a 150% increase compared with the control: 0.16 µM
Human plasma [2]
  TT: inhibitor dose causing a 250% increase compared with the control: 0.013 µM
Human plasma [3]
  APTT: inhibitor dose causing a 250% increase compared with the control: 0.18 µM
[4]
  IC50: 1 nM

## CC[C@H](C)[C@H](N)C(=O)N[C@@H](CCCNC(=N)N)C(=O)N[C@@H](Cc1ccccc1)C(=O)N[C@H](C(=O)N[C@@H](CC(=O)O)C(=O)N[C@H](C)C(=O)NCC(=O)NCCC(=O)N1CCC[C@H]1C(=O)N[C@@H](CCC(=O)O)C(=O)N[C@@H](CO)C(=O)N[C@@H](Cc1c[nH]cn1)C(=O)N[C@@H](CCc1ccccc1)C(=O)NCC(=O)NCC(=O)N[C@@H](CC(=O)O)C(=O)N[C@@H](Cc1ccc(O)cc1)C(=O)N[C@@H](CCC(=O)O)C(=O)N[C@@H](CCC(=O)O)C(=O)N[C@H](C(=O)N1CCC[C@H]1C(=O)NC(C)(C)C(=O)NC(C)(C)C(=O)N[C@@H](Cc1ccc(O)cc1)C(=O)N[C@@H](CC1CCCCC1)C(=O)N[C@H](CCC(=O)O)C(=O)O)[C@@H](C)CC)[C@@H](C)O [Hirunorm-II] (HELM PEPTIDE1{I.R.F.T.D.[dA].G.[bAla].P.E.S.H.[O=C([C@H](CCc1ccccc1)N[*:1])[*:2]].G.G.D.Y.E.E.I.P.[Aib].[Aib].Y.[Cha].[dE]}$$$$V2.0)
Human plasma [1]
  PT: inhibitor dose causing a 150% increase compared with the control: 0.32 µM
Human plasma [2]
  TT: inhibitor dose causing a 250% increase compared with the control: 0.022 µM
Human plasma [3]
  APTT: inhibitor dose causing a 250% increase compared with the control: 0.27 µM
[4]
  IC50: 1 nM

## CC[C@H](C)[C@H](N)C(=O)N[C@@H](CCCNC(=N)N)C(=O)N[C@@H](Cc1ccc(O)cc1)C(=O)N[C@H](C(=O)N[C@@H](CC(=O)O)C(=O)N[C@H](C)C(=O)NCCC(=O)NCCC(=O)N1CCC[C@H]1C(=O)N[C@@H](CCC(=O)O)C(=O)N[C@@H](CC(N)=O)C(=O)N[C@@H](Cc1c[nH]cn1)C(=O)N[C@@H](CC(N)=O)C(=O)N[C@@H](CC(N)=O)C(=O)NCC(=O)N[C@@H](CC(=O)O)C(=O)N[C@@H](Cc1ccccc1)C(=O)N[C@@H](CCC(=O)O)C(=O)N[C@@H](CCC(=O)O)C(=O)N[C@H](C(=O)N1CCC[C@H]1C(=O)NC(C)(C)C(=O)NC(C)(C)C(=O)N[C@@H](Cc1ccc(O)cc1)C(=O)N[C@@H](CC(C)C)C(=O)N[C@@H](CCC(=O)O)C(=O)O)[C@@H](C)CC)[C@@H](C)O [Hirunorm-I] (HELM PEPTIDE1{I.R.Y.T.D.[dA].[bAla].[bAla].P.E.N.H.N.N.G.D.F.E.E.I.P.[Aib].[Aib].Y.L.E}$$$$V2.0)
Human plasma [1]
  PT: inhibitor dose causing a 150% increase compared with the control: 1.6 µM
Human plasma [2]
  TT: inhibitor dose causing a 250% increase compared with the control: 0.23 µM
Human plasma [3]
  APTT: inhibitor dose causing a 250% increase compared with the control: 2.7 µM
[4]
  IC50: 2 nM
